Paper PMC4066819
No constants are given. Whether binding was seen depends on the method and setting. Binding seen in cells or lysates may run through a third protein. Some binding calls cover weakened binding; strength is not graded here. Tags and fused reporters may be left off the sequences shown.

Amino acid sequences for entries named in this document (tags omitted).
UniProt P37238: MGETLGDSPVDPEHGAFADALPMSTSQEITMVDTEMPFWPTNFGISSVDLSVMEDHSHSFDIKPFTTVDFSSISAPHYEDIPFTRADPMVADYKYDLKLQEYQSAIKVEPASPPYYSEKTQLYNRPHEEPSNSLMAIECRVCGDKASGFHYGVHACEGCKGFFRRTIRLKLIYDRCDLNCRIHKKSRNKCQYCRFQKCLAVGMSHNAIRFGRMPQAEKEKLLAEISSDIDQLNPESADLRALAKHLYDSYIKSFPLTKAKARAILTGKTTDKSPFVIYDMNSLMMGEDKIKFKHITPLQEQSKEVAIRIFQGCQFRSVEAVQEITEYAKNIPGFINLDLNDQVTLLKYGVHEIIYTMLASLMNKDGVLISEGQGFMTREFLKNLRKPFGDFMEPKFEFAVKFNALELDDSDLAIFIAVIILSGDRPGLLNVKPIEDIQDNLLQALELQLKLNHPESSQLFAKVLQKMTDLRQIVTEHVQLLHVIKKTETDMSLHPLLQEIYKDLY

T1: FLAG-V5-TAF7L (TATA-binding protein associated factor 7L, doubly tagged) (UniProt Q9D3R9)
T1 sequence: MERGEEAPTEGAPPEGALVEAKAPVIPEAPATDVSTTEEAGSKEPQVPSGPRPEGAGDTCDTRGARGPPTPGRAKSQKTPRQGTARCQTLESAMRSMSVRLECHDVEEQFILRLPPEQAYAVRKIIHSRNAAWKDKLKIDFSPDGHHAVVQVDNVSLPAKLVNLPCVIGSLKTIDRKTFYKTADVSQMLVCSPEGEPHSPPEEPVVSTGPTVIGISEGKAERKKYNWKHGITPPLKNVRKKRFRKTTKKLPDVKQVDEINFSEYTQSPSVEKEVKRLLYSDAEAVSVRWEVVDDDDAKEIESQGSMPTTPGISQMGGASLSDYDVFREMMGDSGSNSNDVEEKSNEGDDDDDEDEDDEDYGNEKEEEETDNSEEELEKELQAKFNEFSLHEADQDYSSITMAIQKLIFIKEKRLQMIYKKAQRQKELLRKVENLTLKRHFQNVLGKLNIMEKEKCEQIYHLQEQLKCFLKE


Biological target: T1, FLAG-V5-TAF7L (TATA-binding protein associated factor 7L, doubly tagged)
Assay: co-IP; same sequential FLAG then V5 immunoprecipitation from post-differentiated FLAG-V5-GFP/TAF7L C3H10T1/2 adipocytes; 0.3 M NaCl, 0.2% NP-40, 4°C; western blotting with V5, PPARγ, TAF4 and TBP antibodies

binding | Molecule
binds | PPARγ (from UniProt P37238 1-505)
binds | TAF4 (protein, UniProt E9QAP7 1-1042) MAAGSDLLDEVFFNSEVDEKVVSDLVGSLESQLAASAAHHHHLAPRTPELRAAAAGALGNHVVSGSPAGAAGAGPAASAEGAPAAAPEPPPAGRARPAGGGPRRPGSSSPRRLLVPAGPAPAPAKLRPLPEASAGPCPAAAAAAAATAAAVAGPDPAAAAPPAGPGASKPGPPGPPGPGAAQTLNGSAAPPTAPHAAPAVSPVNNGPAPPPAAGSVIQAAPAPAAPSPPAAPAPAAPPPPAPPAPVAPARPPGHPAAPAPPVSPAAAAAAAAAAAAAQNGAAPAPAAASGGAAGLGQPGAGAQGAKAEAPKPGPGPGPGPAAAAAAAGVAGGGAAGSVLLGPAMPGALPGPAPGTPAGLAKGAAAATPSLPRTPAATTGAIRATLTPTVLAPRLPQPPQNPTNIQNFQLPPGMVLVRSENGQLLMIPQQALAQMQAHAQAQPQSTMAPRPATPTGAPPVQISTVQAPGTPIIARQVTPTTIIKQVSQAQTTVQPTTTLQRSPGVQPQLVLGGSAQPASLGTATAVQTGTPQRTVPGASTTSTAATETMENVKKCKSFLSTLIKLASSGKQSTETAANVKDLVQNLLDGKIEAEDFTSRLYRELNSSPQPYLVPFLKRSLPALRQLTPDSAAFIQQSQQQQPPASQATTALTAVVLSSSVQRTAGKTAASVTSALQPPVISLTQPTQVGVGKQAPPTPLVIQQPPKPGALIRPPQVTLTQTPMVALRQPHNRIMLTTPQQIQLNQLQPVPVVKPTVLPGTKALSTVSAQAAAAQKNKLKEPGGGSFRDDDDINDVASMAGVNLSEESARILATNSELVGTLTRSCKDDTFLLPAPLQRRILEIGKKHGITELHPDVVSYVSHATQQRLQNLVEKISETAQQKNFSYKDDDRYEQASDVRAQLKFFEQLDQIEKQRKDEQEREILMRAAKSRSRQEDPEQLRLKQKAKEMQQQELAQMRQRDANLTALAAIGPRKKRKVDCTGPGSGAEGSGPGAAVPGGSGVGTPRQFTRQRITRVNLRDLIFCLENERETSHSLLLYKAFLK
